Experimental data reported in paper PMC4345935.
Results are given in words; binding and its absence hold for the method and conditions named. Binding seen in cells or lysates may run through a third protein. Binding can be weak; no strength is given. Where a sequence is shown, tags or fusion partners need not be part of it.

What was measured:
[1] = target: T1, Intraflagellar transport protein-88 (IFT88), endogenous (human (endogenous in HEKT293 and HeLa)) (UniProt Q13099); assay: co-IP; reciprocal: endogenous IFT88 precipitated from lysate of serum-starved HEKT293 cells; immunoblot for CENP-F; IgG isotype control
T1 sequence: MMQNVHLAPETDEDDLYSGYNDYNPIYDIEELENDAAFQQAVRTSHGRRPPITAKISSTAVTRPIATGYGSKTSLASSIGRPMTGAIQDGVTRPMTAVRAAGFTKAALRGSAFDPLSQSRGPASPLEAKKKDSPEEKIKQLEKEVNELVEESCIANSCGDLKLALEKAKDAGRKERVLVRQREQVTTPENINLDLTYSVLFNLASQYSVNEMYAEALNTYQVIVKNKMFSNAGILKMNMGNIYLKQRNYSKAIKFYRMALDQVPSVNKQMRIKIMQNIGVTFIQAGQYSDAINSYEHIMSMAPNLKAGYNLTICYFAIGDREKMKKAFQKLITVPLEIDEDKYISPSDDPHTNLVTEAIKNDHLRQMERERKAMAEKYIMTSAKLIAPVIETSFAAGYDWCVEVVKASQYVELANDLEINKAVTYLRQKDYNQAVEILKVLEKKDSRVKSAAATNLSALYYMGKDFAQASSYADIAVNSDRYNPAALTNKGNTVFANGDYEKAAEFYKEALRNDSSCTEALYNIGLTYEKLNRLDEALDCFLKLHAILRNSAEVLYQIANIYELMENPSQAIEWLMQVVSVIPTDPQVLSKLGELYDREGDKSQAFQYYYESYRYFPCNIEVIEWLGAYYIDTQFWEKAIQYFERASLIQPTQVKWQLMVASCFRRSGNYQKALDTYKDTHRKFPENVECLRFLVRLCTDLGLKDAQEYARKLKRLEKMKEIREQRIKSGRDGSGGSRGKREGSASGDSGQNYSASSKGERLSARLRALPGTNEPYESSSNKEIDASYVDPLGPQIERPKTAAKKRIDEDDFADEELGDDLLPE

[2] = target: CENP-F (centromere protein F), endogenous (human (endogenous in HEKT293 and HeLa)); assay: co-IP; lysate of mitotic HEKT293 cells in radio-immunoprecipitation assay buffer, incubated with monoclonal anti-CENP-F (ab90, Abcam, 1:100) for 24 h at 4°C; immunoblot with anti-IFT88 and anti-KIF3B; IgG isotype control

Molecule	binding [1]	binding [2]
CENP-F (centromere protein F), endogenous (human (endogenous in HEKT293 and HeLa))	binds	–
Intraflagellar transport protein-88 (IFT88), endogenous (protein, UniProt Q13099 1-824) MMQNVHLAPETDEDDLYSGYNDYNPIYDIEELENDAAFQQAVRTSHGRRPPITAKISSTAVTRPIATGYGSKTSLASSIGRPMTGAIQDGVTRPMTAVRAAGFTKAALRGSAFDPLSQSRGPASPLEAKKKDSPEEKIKQLEKEVNELVEESCIANSCGDLKLALEKAKDAGRKERVLVRQREQVTTPENINLDLTYSVLFNLASQYSVNEMYAEALNTYQVIVKNKMFSNAGILKMNMGNIYLKQRNYSKAIKFYRMALDQVPSVNKQMRIKIMQNIGVTFIQAGQYSDAINSYEHIMSMAPNLKAGYNLTICYFAIGDREKMKKAFQKLITVPLEIDEDKYISPSDDPHTNLVTEAIKNDHLRQMERERKAMAEKYIMTSAKLIAPVIETSFAAGYDWCVEVVKASQYVELANDLEINKAVTYLRQKDYNQAVEILKVLEKKDSRVKSAAATNLSALYYMGKDFAQASSYADIAVNSDRYNPAALTNKGNTVFANGDYEKAAEFYKEALRNDSSCTEALYNIGLTYEKLNRLDEALDCFLKLHAILRNSAEVLYQIANIYELMENPSQAIEWLMQVVSVIPTDPQVLSKLGELYDREGDKSQAFQYYYESYRYFPCNIEVIEWLGAYYIDTQFWEKAIQYFERASLIQPTQVKWQLMVASCFRRSGNYQKALDTYKDTHRKFPENVECLRFLVRLCTDLGLKDAQEYARKLKRLEKMKEIREQRIKSGRDGSGGSRGKREGSASGDSGQNYSASSKGERLSARLRALPGTNEPYESSSNKEIDASYVDPLGPQIERPKTAAKKRIDEDDFADEELGDDLLPE	–	binds
KIF3B (protein, UniProt O15066 1-747) MSKLKSSESVRVVVRCRPMNGKEKAASYDKVVDVDVKLGQVSVKNPKGTAHEMPKTFTFDAVYDWNAKQFELYDETFRPLVDSVLQGFNGTIFAYGQTGTGKTYTMEGIRGDPEKRGVIPNSFDHIFTHISRSQNQQYLVRASYLEIYQEEIRDLLSKDQTKRLELKERPDTGVYVKDLSSFVTKSVKEIEHVMNVGNQNRSVGATNMNEHSSRSHAIFVITIECSEVGLDGENHIRVGKLNLVDLAGSERQAKTGAQGERLKEATKINLSLSALGNVISALVDGKSTHIPYRDSKLTRLLQDSLGGNAKTVMVANVGPASYNVEETLTTLRYANRAKNIKNKPRVNEDPKDALLREFQEEIARLKAQLEKRSIGRRKRREKRREGGGSGGGGEEEEEEGEEGEEEGDDKDDYWREQQEKLEIEKRAIVEDHSLVAEEKMRLLKEKEKKMEDLRREKDAAEMLGAKIKAMESKLLVGGKNIVDHTNEQQKILEQKRQEIAEQKRREREIQQQMESRDEETLELKETYSSLQQEVDIKTKKLKKLFSKLQAVKAEIHDLQEEHIKERQELEQTQNELTRELKLKHLIIENFIPLEEKSKIMNRAFFDEEEDHWKLHPITRLENQQMMKRPVSAVGYKRPLSQHARMSMMIRPEARYRAENIVLLELDMPSRTTRDYEGPAIAPKVQAALDAALQDEDEIQVDASSFESTANKKSKARPKSGRKSGSSSSSSGTPASQLYPQSRGLVPK	–	binds
